{
  "source": "patent US10982192B2",
  "about": "“Method for the induction of arterial-type of hemogenic endothelium from hPSCS” (Wisconsin Alumni Research Foundation, priority 2017, dated 2021)",
  "system": "HPs derived from D5 HE:DLL4- on OP9",
  "test": "T-cell limiting dilution assay",
  "assay_type": "cell-based, human",
  "details": "D5 HE:DLL4- on OP9 with DAPT",
  "note": "At least one structure is not confirmed: it was looked up by name or label, or the drawing left a doubt.",
  "data": [
    {"smiles": "C[C@H](NC(=O)Cc1cc(F)cc(F)c1)C(=O)N[C@H](C(=O)OC(C)(C)C)c1ccccc1", "note": "[DAPT]", "values": [
      {"measurement": "frequency of cells with T-cell potential", "result": "1 in 10,895"}
    ]}
  ]
}
